Data reported in patent publication US20130078247A1.
Results are given in words; binding and its absence hold for the method and conditions named. Some binding calls cover weakened binding; strength is not graded here.

By UniProt entry, the sequences of proteins in these tests, tags left out. Where a name states a change or a piece, a line headed by the entry shows the natural chain unless it says otherwise. Chains listed by the source or under a name are the forms on record and can include a tag or linker. Residues count along the entry.
UniProt Q9NR61: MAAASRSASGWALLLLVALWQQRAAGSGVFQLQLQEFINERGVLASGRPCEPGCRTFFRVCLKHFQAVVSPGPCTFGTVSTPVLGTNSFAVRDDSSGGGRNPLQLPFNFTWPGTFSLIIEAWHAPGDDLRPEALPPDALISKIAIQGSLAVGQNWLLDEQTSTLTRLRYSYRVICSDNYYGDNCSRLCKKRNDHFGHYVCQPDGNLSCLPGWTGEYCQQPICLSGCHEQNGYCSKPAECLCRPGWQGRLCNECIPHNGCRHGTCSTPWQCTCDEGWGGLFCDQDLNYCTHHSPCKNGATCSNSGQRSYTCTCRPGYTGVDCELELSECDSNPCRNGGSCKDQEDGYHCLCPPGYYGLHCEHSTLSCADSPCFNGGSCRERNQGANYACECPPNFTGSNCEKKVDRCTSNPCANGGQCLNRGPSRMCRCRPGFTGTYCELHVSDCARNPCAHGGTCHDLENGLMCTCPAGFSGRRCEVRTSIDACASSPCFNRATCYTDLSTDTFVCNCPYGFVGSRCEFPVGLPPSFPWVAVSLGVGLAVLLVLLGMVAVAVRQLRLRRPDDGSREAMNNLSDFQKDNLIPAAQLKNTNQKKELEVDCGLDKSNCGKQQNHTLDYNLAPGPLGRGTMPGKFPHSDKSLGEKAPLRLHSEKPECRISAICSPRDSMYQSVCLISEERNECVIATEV
UniProt Q9JI71: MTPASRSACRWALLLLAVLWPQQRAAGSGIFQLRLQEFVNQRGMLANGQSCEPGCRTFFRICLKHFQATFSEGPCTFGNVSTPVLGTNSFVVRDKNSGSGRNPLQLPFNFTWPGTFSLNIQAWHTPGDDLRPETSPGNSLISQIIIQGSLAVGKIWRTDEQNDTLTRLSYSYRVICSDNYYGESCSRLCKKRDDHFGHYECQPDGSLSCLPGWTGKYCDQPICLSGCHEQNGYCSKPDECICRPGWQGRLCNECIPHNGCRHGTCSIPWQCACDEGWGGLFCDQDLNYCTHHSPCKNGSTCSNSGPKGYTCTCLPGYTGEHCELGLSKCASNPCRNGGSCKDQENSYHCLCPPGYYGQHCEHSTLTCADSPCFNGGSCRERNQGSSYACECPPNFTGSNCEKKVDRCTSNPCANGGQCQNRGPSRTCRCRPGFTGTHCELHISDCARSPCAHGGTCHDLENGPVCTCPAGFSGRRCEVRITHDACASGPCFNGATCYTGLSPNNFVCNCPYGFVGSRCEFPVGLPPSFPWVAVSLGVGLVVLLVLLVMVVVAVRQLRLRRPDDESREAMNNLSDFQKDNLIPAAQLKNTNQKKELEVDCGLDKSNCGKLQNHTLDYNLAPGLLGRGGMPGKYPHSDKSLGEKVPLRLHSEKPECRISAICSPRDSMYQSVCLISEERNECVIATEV
mouse DLL4, full length, overexpressed on CHO or HEK293 cells: residues 27-686 of Q9JI71
recombinant mouse DLL4 extracellular domain, C-terminally His-tagged (R&D Systems): residues 27-525 of Q9JI71

Tests used:
[1] = target: recombinant human DLL4 extracellular domain, C-terminally His-tagged (R&D Systems) (human) (UniProt Q9NR61); test: AlphaScreen competition: biotinylated hDLL4 (donor beads) / hNotch1-Fc (acceptor beads)
[2] = target: mouse DLL4, full length, overexpressed on CHO or HEK293 cells (mouse) (UniProt Q9JI71); test: FMAT competition: labelled hNotch1-Fc on CHO-mDLL4 cells
[3] = target: human DLL4, full length, overexpressed on CHO or HEK293 cells (human) (UniProt Q9NR61); test: FMAT competition: labelled hNotch1-Fc on CHO-hDLL4 cells
[4] = target: recombinant human DLL4 extracellular domain, C-terminally His-tagged (R&D Systems) (human) (UniProt Q9NR61); test: binding ELISA on coated rhDLL4
[5] = target: mouse DLL4, full length, overexpressed on CHO or HEK293 cells (mouse) (UniProt Q9JI71); test: FACS titration on cells overexpressing mouse DLL4, MCF
[6] = target: cynomolgus DLL4, full length, overexpressed on cells (cynomolgus); test: FACS titration on cells overexpressing cynomolgus DLL4, MCF
[7] = target: cynomolgus DLL4, full length, overexpressed on cells (cynomolgus); test: characterisation of Example 7 (FACS on cells)
[8] = target: mouse DLL4, full length, overexpressed on CHO or HEK293 cells (mouse) (UniProt Q9JI71); test: characterisation of Example 7 (FACS on cells)
[9] = target: human DLL4, full length, overexpressed on CHO or HEK293 cells (human) (UniProt Q9NR61); test: FACS titration on cells overexpressing human DLL4, MCF
[10] = target: recombinant mouse DLL4 extracellular domain, C-terminally His-tagged (R&D Systems) (mouse) (UniProt Q9JI71); test: binding ELISA on coated rmDLL4
[11] = target: recombinant human DLL4 extracellular domain, C-terminally His-tagged (R&D Systems) (human) (UniProt Q9NR61); test: SPR binning, hDLL4 captured by immobilized Fab, VHH at 100 nM

Row | Binder | binding [1] | binding [4] | further results
1 | DLLBII61F05 (VHH, not shown: small tags and cut ends) VHH: EVQLVESGGGLVQPGGSLRLSCTASGFTFSSYAMSWVRQAPGKGLEWVSFINKDGSDTGYADSVKGRFTISRDNAKNTMYLQMNSLKPEDTAVYFCETRTSRSPRPRGQGTQVTVSS | binds | – | binding [2]: binds
2 | 83G04 (VHH) VHH: EVQLVESGGGLVKPGGSLRLSCAASGRTLYIMGWYRQAPGKEREFVAGISRYGDITYAADSVKGRFTISRDSVKNTVYLRMNSLKPDDTAVYYCAANGGYCSGYGCYEDSGQYDYWGQGTQVTVSS | binds | – | binding [2]: binds; binding [3]: binds
3 | DLLBII015 (VHH, not shown: small tags and cut ends) VHH: EVQLVESGGGLVQPGGSLRLSCAASGFTIGSYDMSWVRRSPGKGPEWVSAINSGGGSTYYADYVKGRFTISRDNAKNTLYLQMNSLKPEDTAVYYCAADRYIWARQGEYWGAYAYDYWGQGTQVTVSS | – | binds | binding [5]: binds; binding [6]: binds; binding [7]: binds; binding [8]: binds; binding [9]: binds; binding [10]: binds
4 | DLLBII101G08 (VHH, not shown: small tags and cut ends) VHH: EVQLVESGGGLVQAGGSLRLSCAASGRTFSSYAMAWFRQAPGKEREFVAAIRWSGGTAYYADSVQGRFTISRDNAKNTVYLQMNSLKPEDTAVYYCANRAADTRLGPYEYDYWGQGTQVTVSS | – | binds | –
5 | DLLBII19F04 (VHH, not shown: small tags and cut ends) VHH: EVQLVESGGGLVQAEGSLRLSCAASGSTFSTYAMAWYRQAPGKQRELVAGISFDGSTHYAESVKGRFTISRDDAKNTVSLQMNSLKPEDAAVYYCYSVHPSTGFGSWGQGTQVTVSS | binds | – | –
6 | DLLBII8C11 (VHH, not shown: small tags and cut ends) VHH: EVQLVESGGGLVQAGGSLRLSCAASGFTFDDYAIGWFRQAPGKEREGVSCISSHDRTTYYADSVKGRFTISSDNAKNTVYLQMNSLKPEDTAVYYCAADPLVCGYNDPRLADYWGQGTQVTVSS | binds | – | –
7 | DLLBII107C03 (VHH, not shown: small tags and cut ends) VHH: EVQLVESGGGLVQPGGSLRLSCEVSGSIGSVSDMRWYRQAPGLQYELVARITSGSITDYSDSVKGRFTISRDNAKNTVYLQMNSLKPEDTAVYYCNADVQHSAWLKPLTYWGQGTQVTVSS | – | – | binding [2]: binds
8 | DLLBII58A11 (VHH, not shown: small tags and cut ends) VHH: EVQLVESGGGLVQAGGSLRLSCTTSERTVSRYSMGWFRQAPGKEREAVATISWSGDSTYYADSVKGRFTISRDNTKNTLYLQIDSLKPEDTAVYYCVAKPNLKYGSYWPPRGYDYWGQGTQVTVSS | – | – | binding [2]: binds
9 | DLLBII6B11 (VHH, not shown: small tags and cut ends) VHH: EVQLVESEGGLVQAGGSLRLSCAASGSTFSSYAMGWYRQAPGKQRELVAVISNGGITNYPNSVKGRFTISRDNAKNTVYLQMNSLKPEDTAVYYCFYSGSYYYPTDVHEYDYWGQGTQVTVSS | – | – | binding [11]: binds
10 | DLLBII95F02 (VHH, not shown: small tags and cut ends) VHH: EVQLVESGGGSVQAGGSLRLSCAASGRTFSSYAMGWFRQAPGKEREFVAAINWSGGYTYYADSVRGRFTISRDNAKNTVYLQMNSLKPEDTAVYYCAAPAPGSSGYEYDYWGQGTQVTVSS | binds | – | –
11 | DLLBII61F07 (VHH, not shown: small tags and cut ends) VHH: EVQLVESGGGLVQAGGSLRLSCAASGRTFSRYAMGWFRQAPGKEREFVAAINWSGGSTYYADSVKGRFTISRDNAKNTVYLQMNSLKPEDTAVYDCAASNYYSVYDDRPVMDYWGQGTQVTVSS | binds | – | binding [2]: binds
12 | DLLBII104G01 (VHH, not shown: small tags and cut ends) VHH: EVQLVESGGGLVQAGGSLRLSCAASGFTFDDYAIGWFRQAPGKEREGVSCISSSDGSTYYADSVKGRFTISSDNAKNTVYLQMNSLKPEDTAVYYCATAWCDSSWYRSFVGYWGQGTQVTVSS | – | – | binding [11]: binds

Now from value to binder, other results behind:

Row | binding [1] | binding [4] | Binder | further results
13 | – | binds | DLLBII115A05 (VHH, not shown: small tags and cut ends) VHH: EVQLVESGGGLVQPGGSLRLSCAASGFTFGSYDMSWVRRSPGKGPEWVSSINSGGGSTYYADFVKGRFTISRDNAKNTLYLQMNSLKPEDTAVYYCAADRYIRARQGDYWGAYEYDYWGQGTQVTVSS | –
14 | – | binds | DLLBII136C07 (VHH, not shown: small tags and cut ends) VHH: EVQLVESGGGLVQPGGSLRLSCAASGFTFGSYDMSWVRRSPGKGPEWVSSINSGGGSTYYADYVKGRFTISRDNAKNTLYLQMNSLKPEDTAVYYCAADRYIWARQGEYWGAYEYDYWGQGTQVTVSS | –
15 | – | binds | DLLBII133A09 (VHH, not shown: small tags and cut ends) VHH: EVQLVESGGGLVQPGGSLRLSCAASGFTFGSYDMSWVRRSPGKGPEWVSAINSGGGSTYYADYVKGRFTISRDNAKNTLYLQMNSLKPEDTAVYYCAADRYIWARQGEYWGAYAYDYWGQGTQVTVSS | –
16 | – | binds | DLLBII133G05 (VHH, not shown: small tags and cut ends) VHH: EVQLVESGGGLVQPGGSLRLSCAASGFTFGSYDMSWVRRSPGKGPEWVSAINSGGGSTYYTDYVKGRFTISRDNAKNTLYLQMNSLKPEDTAVYYCAADRYIWARQGEYWGAYAYDYWGQGTQVTVSS | –
17 | – | binds | DLLBII129D08 (VHH, not shown: small tags and cut ends) VHH: EVQLVESGGGLVQAGGSLRLSCAASGRTFSSYAMAWYRQAPGKEREYVAAIRWSGGTAYYADSVQGRFTISRDNAKNTVYLQMNSLKPEDTAVYYCANRAPDTRLEPYLYDYWGQGTQVTVSS | –
18 | – | binds | DLLBII129E11 (VHH, not shown: small tags and cut ends) VHH: EVQLVESGGGLVQAGGSLRLSCAASGRTFSSYAMAWYRQAPGKEREYVAAIRWSGGTAYYADSVQGRFTISRDNAKNTVYLQMNSLKPEDTAVYYCANRAPDTRLRPYLYDYWGQGTQVTVSS | –
19 | binds | – | DLLBII102G04 (VHH, not shown: small tags and cut ends) VHH: EVQLMESGGGLVQPGGSLRLSCAASGFTFSSYAMSWVRQAPGKGLEWVSRITSGGRTTYRDSVKGRFTISRDNSKNTLYLQMNSLKPEDTALYYCAKARGDIDVYTLSDSRGQGTQVTVSS | –
